Construct, isoform or probe ends are uncertain for at least one entry. The comparison behind a weaker result is the experiment's own reference, which may not be listed here.

By UniProt entry, the sequences of proteins in these tests, tags left out. Where a name states a change or a piece, a line headed by the entry shows the natural chain unless it says otherwise.
UniProt P23909: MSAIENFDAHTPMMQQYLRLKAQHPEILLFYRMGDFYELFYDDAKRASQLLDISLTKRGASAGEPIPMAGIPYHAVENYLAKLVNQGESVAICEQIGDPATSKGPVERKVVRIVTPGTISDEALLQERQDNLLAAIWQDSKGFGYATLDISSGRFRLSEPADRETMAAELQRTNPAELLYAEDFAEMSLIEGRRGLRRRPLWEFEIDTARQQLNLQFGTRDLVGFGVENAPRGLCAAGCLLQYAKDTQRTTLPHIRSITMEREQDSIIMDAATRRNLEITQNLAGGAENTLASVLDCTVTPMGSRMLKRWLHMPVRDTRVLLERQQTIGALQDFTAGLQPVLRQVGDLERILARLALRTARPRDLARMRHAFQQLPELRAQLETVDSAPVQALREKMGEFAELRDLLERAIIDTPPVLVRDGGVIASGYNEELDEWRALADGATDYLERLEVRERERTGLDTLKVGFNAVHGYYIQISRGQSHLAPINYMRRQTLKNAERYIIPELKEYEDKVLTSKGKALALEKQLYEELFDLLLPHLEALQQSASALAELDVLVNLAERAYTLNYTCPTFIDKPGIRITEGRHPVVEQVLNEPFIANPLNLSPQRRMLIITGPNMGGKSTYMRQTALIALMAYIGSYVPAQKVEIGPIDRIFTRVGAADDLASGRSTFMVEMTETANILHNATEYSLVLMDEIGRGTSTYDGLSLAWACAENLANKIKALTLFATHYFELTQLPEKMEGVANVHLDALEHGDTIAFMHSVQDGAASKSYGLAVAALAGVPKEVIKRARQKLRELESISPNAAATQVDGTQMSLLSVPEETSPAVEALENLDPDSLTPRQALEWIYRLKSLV

In doi:10.1101/2021.10.21.465318 one finds binding result and Kd data, which are given here for one sequence.

The target in one data set is EcMutS (UniProt P23909). Briefly: SPR.
The subject of another data set is HsMSH2 + HsMSH6. Briefly: SPR.
Where [1] appears, read: 1 mM ATP, dissociates at least 10-fold faster than from blocked end.

In the case of “AAAGCTGGAGCTGAAGCTTAGCTTAGGATCATCGAGGATCGAGCTCGGTGCAATTCAGCGGTACCCAATTCGCCCTATAGTT / AACTATAGGGCGAATTGGGTACCGGTCAATTGCACCGAGCTTGATCCTCGATGATCCTAAGCTAAGCTTCAGCTCCAGCTTT [82-mer G/T open-end]”, the binding result with EcMutS (setting [1]) and with HsMSH2 + HsMSH6 (setting [1]) was “binds more weakly” each time. In addition, the Kd in the data set with EcMutS (no ATP, 10 mM Mg2+) came out at 3 nM; with HsMSH2 + HsMSH6 (no ATP, 10 mM Mg2+), 0.7 nM.
